Experimental data taken from the supplement of paper PMC10849652.
The other results are listed elsewhere or left out.

By UniProt entry, the sequences of proteins in these tests, tags left out. Where a name states a change or a piece, a line headed by the entry shows the natural chain unless it says otherwise.
UniProt Q96AT9: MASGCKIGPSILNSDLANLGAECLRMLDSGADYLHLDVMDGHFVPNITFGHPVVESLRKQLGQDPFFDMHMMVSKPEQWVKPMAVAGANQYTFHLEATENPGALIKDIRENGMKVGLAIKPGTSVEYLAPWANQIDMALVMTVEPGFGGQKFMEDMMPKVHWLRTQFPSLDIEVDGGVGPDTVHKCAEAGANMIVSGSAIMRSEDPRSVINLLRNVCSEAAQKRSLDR
UniProt Q9H4P4: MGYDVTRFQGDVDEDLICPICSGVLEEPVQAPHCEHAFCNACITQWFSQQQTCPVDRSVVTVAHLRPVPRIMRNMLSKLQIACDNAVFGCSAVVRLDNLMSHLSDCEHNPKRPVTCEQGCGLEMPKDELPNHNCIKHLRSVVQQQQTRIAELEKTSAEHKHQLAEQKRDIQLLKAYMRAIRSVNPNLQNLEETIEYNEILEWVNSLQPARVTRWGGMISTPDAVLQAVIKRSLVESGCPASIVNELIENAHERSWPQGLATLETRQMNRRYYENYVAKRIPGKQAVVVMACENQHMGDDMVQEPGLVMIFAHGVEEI
UniProt Q6R327, whole entry, looked up: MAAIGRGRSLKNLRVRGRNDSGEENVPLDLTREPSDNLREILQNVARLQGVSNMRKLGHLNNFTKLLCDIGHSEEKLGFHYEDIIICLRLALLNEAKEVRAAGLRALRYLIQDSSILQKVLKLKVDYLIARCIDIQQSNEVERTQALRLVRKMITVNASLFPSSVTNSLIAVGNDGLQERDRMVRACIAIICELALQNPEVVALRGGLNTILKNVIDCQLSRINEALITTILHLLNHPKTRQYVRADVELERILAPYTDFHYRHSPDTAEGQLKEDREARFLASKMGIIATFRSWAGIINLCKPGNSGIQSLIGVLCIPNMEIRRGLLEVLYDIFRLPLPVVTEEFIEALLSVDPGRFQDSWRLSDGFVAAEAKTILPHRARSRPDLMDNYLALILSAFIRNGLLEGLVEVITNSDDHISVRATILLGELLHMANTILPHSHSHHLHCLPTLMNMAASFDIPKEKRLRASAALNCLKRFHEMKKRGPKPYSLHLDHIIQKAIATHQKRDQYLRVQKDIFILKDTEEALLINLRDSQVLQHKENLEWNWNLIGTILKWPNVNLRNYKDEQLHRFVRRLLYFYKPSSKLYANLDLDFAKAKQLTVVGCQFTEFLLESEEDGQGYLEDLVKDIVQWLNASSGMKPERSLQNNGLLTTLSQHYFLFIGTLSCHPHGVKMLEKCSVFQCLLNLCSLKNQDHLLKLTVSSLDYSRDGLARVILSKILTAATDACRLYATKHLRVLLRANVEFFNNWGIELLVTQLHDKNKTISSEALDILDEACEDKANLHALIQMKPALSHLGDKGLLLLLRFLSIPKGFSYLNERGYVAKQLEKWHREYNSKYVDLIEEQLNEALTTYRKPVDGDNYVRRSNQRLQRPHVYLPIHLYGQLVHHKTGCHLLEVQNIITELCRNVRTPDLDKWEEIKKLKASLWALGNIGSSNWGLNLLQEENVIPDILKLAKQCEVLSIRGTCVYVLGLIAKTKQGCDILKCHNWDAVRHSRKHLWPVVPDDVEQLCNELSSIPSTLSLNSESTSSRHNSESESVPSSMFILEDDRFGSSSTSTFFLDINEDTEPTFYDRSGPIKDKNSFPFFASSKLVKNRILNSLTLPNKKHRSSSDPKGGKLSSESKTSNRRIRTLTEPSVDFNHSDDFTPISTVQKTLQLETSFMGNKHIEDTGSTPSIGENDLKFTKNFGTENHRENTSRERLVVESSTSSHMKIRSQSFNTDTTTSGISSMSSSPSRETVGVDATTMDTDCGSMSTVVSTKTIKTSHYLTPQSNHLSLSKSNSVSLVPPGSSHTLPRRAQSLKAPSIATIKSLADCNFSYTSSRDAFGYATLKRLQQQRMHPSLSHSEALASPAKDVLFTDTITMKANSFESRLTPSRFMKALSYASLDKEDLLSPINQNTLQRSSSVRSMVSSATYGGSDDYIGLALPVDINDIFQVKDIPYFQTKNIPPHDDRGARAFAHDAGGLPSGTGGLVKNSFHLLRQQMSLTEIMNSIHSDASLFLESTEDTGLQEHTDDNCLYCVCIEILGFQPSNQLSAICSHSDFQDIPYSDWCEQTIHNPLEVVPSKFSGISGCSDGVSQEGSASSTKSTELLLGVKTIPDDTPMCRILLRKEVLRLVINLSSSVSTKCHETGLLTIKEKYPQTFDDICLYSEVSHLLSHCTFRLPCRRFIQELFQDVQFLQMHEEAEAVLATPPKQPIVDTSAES
UniProt Q8WU17: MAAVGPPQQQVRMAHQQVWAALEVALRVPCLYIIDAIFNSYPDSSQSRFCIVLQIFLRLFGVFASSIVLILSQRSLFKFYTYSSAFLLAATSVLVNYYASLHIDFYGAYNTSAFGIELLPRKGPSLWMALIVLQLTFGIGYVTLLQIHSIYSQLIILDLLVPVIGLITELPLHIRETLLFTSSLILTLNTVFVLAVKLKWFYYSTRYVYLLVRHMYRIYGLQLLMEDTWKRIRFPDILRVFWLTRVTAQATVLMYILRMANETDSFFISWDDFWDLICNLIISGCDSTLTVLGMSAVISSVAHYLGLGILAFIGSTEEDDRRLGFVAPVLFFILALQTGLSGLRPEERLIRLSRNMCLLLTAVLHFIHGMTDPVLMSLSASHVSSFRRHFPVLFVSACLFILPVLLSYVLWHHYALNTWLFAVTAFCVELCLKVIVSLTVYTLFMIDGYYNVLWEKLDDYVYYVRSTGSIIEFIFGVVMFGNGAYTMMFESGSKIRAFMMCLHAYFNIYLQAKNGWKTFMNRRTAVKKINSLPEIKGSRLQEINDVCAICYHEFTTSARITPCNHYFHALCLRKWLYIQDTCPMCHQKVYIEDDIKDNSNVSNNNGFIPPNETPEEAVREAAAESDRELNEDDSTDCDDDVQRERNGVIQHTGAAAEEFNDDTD
UniProt Q9H6W3: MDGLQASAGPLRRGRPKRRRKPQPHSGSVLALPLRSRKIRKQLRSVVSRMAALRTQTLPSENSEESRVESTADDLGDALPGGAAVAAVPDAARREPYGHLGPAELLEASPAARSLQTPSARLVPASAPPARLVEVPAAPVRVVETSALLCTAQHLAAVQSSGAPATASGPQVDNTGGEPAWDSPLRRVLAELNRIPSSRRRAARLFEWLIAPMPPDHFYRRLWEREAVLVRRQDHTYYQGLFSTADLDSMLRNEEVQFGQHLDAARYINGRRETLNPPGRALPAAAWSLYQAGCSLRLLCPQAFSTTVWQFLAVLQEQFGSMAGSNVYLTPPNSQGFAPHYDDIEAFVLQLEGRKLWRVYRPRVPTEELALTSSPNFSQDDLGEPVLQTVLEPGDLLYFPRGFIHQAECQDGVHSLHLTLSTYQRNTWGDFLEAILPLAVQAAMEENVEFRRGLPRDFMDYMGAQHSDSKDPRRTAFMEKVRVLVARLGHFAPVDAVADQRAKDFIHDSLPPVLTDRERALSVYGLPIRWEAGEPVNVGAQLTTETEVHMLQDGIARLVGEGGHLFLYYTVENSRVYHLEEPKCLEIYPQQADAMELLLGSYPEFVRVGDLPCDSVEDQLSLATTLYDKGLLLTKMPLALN
UniProt P60602: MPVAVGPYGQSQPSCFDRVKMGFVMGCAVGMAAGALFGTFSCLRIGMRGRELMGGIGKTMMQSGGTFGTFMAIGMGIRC

Experiments:
Assay in all cases: log2 fold change, soluble protein after heating vs DMSO (PISA); higher = thermal stabilisation; K562 lysate, 10 uM; active = over 0.2 and 3.5 SD of the protein, either way, in both replicates (recomputed)
[1] = compound: C1=CC=C(C=C1)[C@H](COC2=CC3=C(C=C2)NC(=O)N3)NC(=O)C4=CC=CN(C4=O)CC5=CC(=C(C=C5)F)F
Outline: (§1)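 To prepare the extract, K562 pellets were dounce-homogenised in PBS pH 7.4 with 1 mM MgCl2, giving crude material at 1 mg/mL protein. This was treated with 10 μM compound for 30 min, then heated in aliquots for 3 min over 48°C-58°C before pooling and addition of NP-40 to 0.5% at 4°C. Centrifugation at 21,000xg for 90 min left soluble protein in the supernatant, which TMTpro 16plex LC-MS/MS quantified with equalised channel sums. Results are log-two fold changes in thermal stability compared with solvent controls, from duplicates.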

[2] = compound: CC1=C(SC2=C1C(=N[C@H](C3=NN=C(N32)C)CC(=O)N)C4=CC=C(C=C4)Cl)C
Outline: as §1

[3] = compound: CC1=C2C(=CC=C1)N=C(N(C2=O)C3=CC=CC=C3C)CN4C=NC5=C(N=CN=C54)N
Outline: as §1

[4] = compound: Cc1sc2c(c1C)C(c1ccc(Cl)cc1)=N[C@@H](CC(=O)OC(C)(C)C)c1nnc(C)n1-2
Outline: as §1

[5] = compound: c1ccc([C@@H]2C[C@H]2NC2CCNCC2)cc1
Outline: as §1

Measured: log2 fold change

RPE (UniProt Q96AT9)
inactive: [1] 0.037 | [2] 0.241 | [3] 0.07 | [4] 0.018 | [5] -0.289

RNF41 (UniProt Q9H4P4)
inactive: [4] -0.04 | [5] 0.029

RNF167 (UniProt Q9H6Y7)
inactive: [1] -0.026 | [2] 0.002 | [4] 0.072 | [5] -0.086

RICTOR isoform 3 (UniProt Q6R327)
inactive: [1] 0.097 | [2] -0.296 | [3] 0.391 | [4] -0.104 | [5] 0.018

RNF139 (UniProt Q8WU17)
inactive: [3] -0.029 | [5] -0.033

RIOX1 (UniProt Q9H6W3)
inactive: [3] -0.037 | [4] 0.099 | [5] 0.021

ROMO1 (UniProt P60602)
inactive: [3] -0.021 | [4] 0.014
